{"source": "ChEMBL document CHEMBL4808254", "about": "“Further SAR studies on natural template based neuroprotective molecules for the treatment of Alzheimer's disease” (Bioorg Med Chem, 2021)", "test": "Permeability of the compound in PBS buffer at pH 7.4 at 500 uM incubated for 18 hrs by PAMPA-BBB assay", "data": [{"compound": "COc1cc2c(cc1OC)C(=O)C(CC1CCN(Cc3ccccc3)CC1)C2", "note": "(stereo unspecified) [DONEPEZIL]", "values": [{"measurement": "Papp at 18 h, 500 µM", "result": 15.6, "unit": "×10⁻⁶ cm/s"}]}]}
